# Percent effect of library compounds

Amino acid sequences for entries named in this document (tags omitted). Residues count along the entry.
UniProt Q8IDJ8, 1-583: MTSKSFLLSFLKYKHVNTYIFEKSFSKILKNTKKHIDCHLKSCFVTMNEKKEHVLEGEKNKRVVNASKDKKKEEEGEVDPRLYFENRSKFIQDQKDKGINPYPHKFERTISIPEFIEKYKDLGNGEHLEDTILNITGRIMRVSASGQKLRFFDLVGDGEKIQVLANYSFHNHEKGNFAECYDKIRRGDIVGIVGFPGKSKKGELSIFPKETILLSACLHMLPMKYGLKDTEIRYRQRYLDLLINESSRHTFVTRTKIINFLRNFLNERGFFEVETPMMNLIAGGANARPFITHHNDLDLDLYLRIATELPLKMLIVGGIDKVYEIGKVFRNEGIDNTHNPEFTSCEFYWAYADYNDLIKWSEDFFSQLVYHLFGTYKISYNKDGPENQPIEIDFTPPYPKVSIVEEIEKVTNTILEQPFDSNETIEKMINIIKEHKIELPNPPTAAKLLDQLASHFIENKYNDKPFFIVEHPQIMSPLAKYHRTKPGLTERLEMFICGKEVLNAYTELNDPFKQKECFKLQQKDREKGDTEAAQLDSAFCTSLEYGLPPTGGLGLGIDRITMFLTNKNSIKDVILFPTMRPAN
UniProt P9WNZ1, whole entry: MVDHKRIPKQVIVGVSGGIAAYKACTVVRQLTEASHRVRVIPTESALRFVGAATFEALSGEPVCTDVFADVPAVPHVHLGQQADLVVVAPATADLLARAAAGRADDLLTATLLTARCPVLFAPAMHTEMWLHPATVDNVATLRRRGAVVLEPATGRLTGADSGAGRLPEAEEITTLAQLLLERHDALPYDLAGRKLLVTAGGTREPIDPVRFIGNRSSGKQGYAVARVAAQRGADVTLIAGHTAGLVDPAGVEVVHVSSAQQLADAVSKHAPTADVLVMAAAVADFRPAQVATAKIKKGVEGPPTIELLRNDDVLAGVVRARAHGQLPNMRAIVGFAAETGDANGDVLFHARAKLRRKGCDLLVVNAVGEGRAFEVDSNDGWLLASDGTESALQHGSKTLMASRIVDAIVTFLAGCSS

PfKRS1: 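Lysine-tRNA ligase, Plasmodium falciparum 3D7 (UniProt Q8IDJ8). Enzyme assay of the cytosolic lysyl-tRNA synthetase in 384-well plates, read by luminescence. Concentration: 30 µM. Higher reads as stronger inhibition, judged from the few compounds that gave an IC50. About 69,000 compounds were tested under these conditions; 0.071% (about 49) showed 50% or more at least once.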
Toxoplasma: 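Assay of Toxoplasma gondii numbers, read through their beta-galactosidase reporter with a colour substrate. Tested at 10 µM. The record gives no direction; the compounds picked for IC50 retests had high values, so higher reads as fewer parasites. About 67,000 compounds were tested under these conditions; 0.38% (about 260) showed 50% or more at least once.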
CoaBC: 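Enzyme assay of CoaBC with a phosphate dye (Biomol Green) read at 650 nm. Target: Coenzyme A biosynthesis protein CoaBC, Mycobacterium tuberculosis (UniProt P9WNZ1). Compounds at 30 µM. Direction is inferred from only a few compounds that gave an IC50; most scored high, so higher reads as stronger inhibition. Most strong results did not repeat in a second test. Of about 67,000 compounds tested this way, about 40 (0.06%) reached 50% or more in at least one test.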

Results are given as percent effect.
The record does not define 0% and 100%; most values in the screen are far below 50% and negative numbers occur (in some assays of this library far below -100).
Compounds were drawn at random from those tested, without regard to their results.
Two or more numbers in one place are separate tests of the same structure; such repeats can differ widely.

{"smiles": "CS(=O)(=O)NC1CCN(C(=O)NCC2CCCO2)CC1", "stereo": "stereo not shown", "PfKRS1": 7.625, "Toxoplasma": -3.578, "CoaBC": 7.231}
{"smiles": "CSCc1nc(C(C)(C)NC(=O)OC(C)(C)C)no1", "PfKRS1": 0.1335, "Toxoplasma": 1.211, "CoaBC": -6.696}
{"smiles": "CC(O)c1cn(Cc2ccc(Cl)cc2)nn1", "stereo": "stereo not shown", "PfKRS1": 6.418, "Toxoplasma": 14.62, "CoaBC": "22.55 and 27.32"}
{"smiles": "CCNC(=O)N1CCC(NC(=O)NCCCc2cccc(F)c2)C1", "stereo": "stereo not shown", "PfKRS1": 4.69, "Toxoplasma": -6.542, "CoaBC": -3.226}
{"smiles": "COc1ccc2ccccc2c1CNCC1CCS(=O)(=O)C1", "stereo": "stereo not shown", "PfKRS1": 0.4302, "CoaBC": -8.351}
{"smiles": "Cc1nc([C@@H]2C[C@H]3CN(Cc4ccc5c(c4)OCO5)C[C@H]3O2)no1", "PfKRS1": 1.44, "CoaBC": 5.419}
{"smiles": "COc1cccc(C(=O)N2C[C@@H](CN(C)CCO)[C@@H](CO)C2)c1C", "PfKRS1": 3.7, "Toxoplasma": 15.48, "CoaBC": 4.97}
{"smiles": "CCO[C@H]1CO[C@@]2(CCCN(S(=O)(=O)c3cccnc3)C2)C1", "PfKRS1": 4.327, "CoaBC": -11.97}
{"smiles": "O=C(O)C(F)(F)F.[H][C@@]12COC[C@@H](C(=O)N3CCCCO3)[C@]1([H])CN(C1CCOCC1)C2", "Toxoplasma": 3.526}
{"smiles": "Cc1sc2c(C3CCCNC3)nc(Nc3cccc(F)c3)n2c1C.Cl", "stereo": "stereo not shown", "Toxoplasma": 38.55}
{"smiles": "O=C(O)C(F)(F)F.O=C(O)C(F)(F)F.O=C1CC2(CCN(Cc3cccnc3)C2)CN1c1ccc2c(c1)OCO2", "stereo": "stereo not shown", "Toxoplasma": 1.486}
{"smiles": "Fc1ccc(CN2CCCC(c3cc4ncccc4[nH]3)C2)cc1", "stereo": "stereo not shown", "PfKRS1": 2.762, "Toxoplasma": 15.57, "CoaBC": -7.177}
{"smiles": "Cc1nccn1CCC1CCCCN1Cc1ccc(O)cc1Cl", "stereo": "stereo not shown", "PfKRS1": 3.114, "Toxoplasma": 0.8274, "CoaBC": 6.684}
{"smiles": "CCN1CC2(CCCCN2C(=O)c2ccsc2)CC1=O", "stereo": "stereo not shown", "PfKRS1": 0.9604, "Toxoplasma": -4.626, "CoaBC": 2.118}
{"smiles": "COc1ccc(CN(C)C(=O)CN2CC(n3cc(C)cn3)C2)cc1F", "PfKRS1": 1.633, "Toxoplasma": 4.475, "CoaBC": -0.1274}
{"smiles": "CNS(=O)(=O)c1cccc(CNC(=O)CCc2ccsc2)c1", "PfKRS1": 6.826, "Toxoplasma": -0.8039, "CoaBC": 8.73}
{"smiles": "O=C(c1ccnnc1)N1CCN2C[C@H](OCc3ccccn3)C[C@H]2C1", "PfKRS1": 4.792, "CoaBC": -1.5}
{"smiles": "O=C(c1cccs1)N1CC[C@@H]2CN(C3CCOCC3)CCO[C@@H]2C1", "PfKRS1": 1.807, "CoaBC": 4.579}
{"smiles": "Cc1cc(NC(=O)CN(CC2CCOC2)C2CC2)no1", "stereo": "stereo not shown", "PfKRS1": -0.4762, "Toxoplasma": -6.794, "CoaBC": -1.044}
{"smiles": "CC(=O)c1ccc(-c2cc(C(F)(F)F)cc(N(C)C)n2)cc1", "PfKRS1": -0.7578, "Toxoplasma": -12.19, "CoaBC": 2.301}
{"smiles": "CC(=O)Nc1nc(CN2CCOC(Cn3cccn3)C2)cs1", "stereo": "stereo not shown", "PfKRS1": 0.4606, "Toxoplasma": 4.922, "CoaBC": 3.133}
{"smiles": "CC(C)n1cnc(-c2nc(C(=O)N3CCN(C)CC3)c3ccccn23)c1", "PfKRS1": 3.054, "Toxoplasma": 13.69, "CoaBC": 6.189}
{"smiles": "CCN1CCC12CCN(C(=O)c1cc(C)on1)C2.O=C(O)C(F)(F)F", "stereo": "stereo not shown", "Toxoplasma": -32.6}
{"smiles": "Cc1cc(N(C)C)nc(C2(C)CCNCC2)n1", "PfKRS1": 0.3487, "CoaBC": 2.85}

The last 2 entries again:

* CCN1CCC12CCN(C(=O)c1cc(C)on1)C2.O=C(O)C(F)(F)F (stereo not shown) : Toxoplasma: -32.6%
* Cc1cc(N(C)C)nc(C2(C)CCNCC2)n1 : PfKRS1: 0.3487%; CoaBC: 2.85%

From ChEMBL document CHEMBL3988442, “University of Dundee, Small-Polar-MMV Screening Library” (2021).